Here are results for two substances from publication PMC10844298.

Chains of the proteins cited; added tags and fusions are not shown.
UniProt P56962: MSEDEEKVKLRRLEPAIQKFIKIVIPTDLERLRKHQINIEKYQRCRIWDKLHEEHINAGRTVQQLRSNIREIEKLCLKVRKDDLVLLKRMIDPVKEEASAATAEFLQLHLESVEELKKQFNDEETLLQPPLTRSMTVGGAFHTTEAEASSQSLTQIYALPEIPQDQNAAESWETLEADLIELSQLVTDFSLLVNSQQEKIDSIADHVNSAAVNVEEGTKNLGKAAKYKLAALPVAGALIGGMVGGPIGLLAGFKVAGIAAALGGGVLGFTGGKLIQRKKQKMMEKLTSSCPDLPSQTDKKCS
UniProt Q13153: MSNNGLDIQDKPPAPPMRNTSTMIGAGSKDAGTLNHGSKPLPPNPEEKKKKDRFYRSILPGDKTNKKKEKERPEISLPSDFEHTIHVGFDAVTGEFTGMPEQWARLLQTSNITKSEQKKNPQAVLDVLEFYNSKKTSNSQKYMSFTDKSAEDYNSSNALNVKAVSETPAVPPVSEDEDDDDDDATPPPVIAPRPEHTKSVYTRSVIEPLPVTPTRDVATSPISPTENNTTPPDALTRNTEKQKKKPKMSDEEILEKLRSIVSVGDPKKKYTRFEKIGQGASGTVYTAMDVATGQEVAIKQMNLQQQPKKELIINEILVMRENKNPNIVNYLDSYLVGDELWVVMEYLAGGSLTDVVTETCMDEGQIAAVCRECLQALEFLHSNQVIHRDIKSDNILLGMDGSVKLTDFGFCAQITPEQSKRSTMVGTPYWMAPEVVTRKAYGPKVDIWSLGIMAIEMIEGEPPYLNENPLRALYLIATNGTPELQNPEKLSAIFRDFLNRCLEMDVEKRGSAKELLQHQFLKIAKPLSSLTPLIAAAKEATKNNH
UniProt Q13177: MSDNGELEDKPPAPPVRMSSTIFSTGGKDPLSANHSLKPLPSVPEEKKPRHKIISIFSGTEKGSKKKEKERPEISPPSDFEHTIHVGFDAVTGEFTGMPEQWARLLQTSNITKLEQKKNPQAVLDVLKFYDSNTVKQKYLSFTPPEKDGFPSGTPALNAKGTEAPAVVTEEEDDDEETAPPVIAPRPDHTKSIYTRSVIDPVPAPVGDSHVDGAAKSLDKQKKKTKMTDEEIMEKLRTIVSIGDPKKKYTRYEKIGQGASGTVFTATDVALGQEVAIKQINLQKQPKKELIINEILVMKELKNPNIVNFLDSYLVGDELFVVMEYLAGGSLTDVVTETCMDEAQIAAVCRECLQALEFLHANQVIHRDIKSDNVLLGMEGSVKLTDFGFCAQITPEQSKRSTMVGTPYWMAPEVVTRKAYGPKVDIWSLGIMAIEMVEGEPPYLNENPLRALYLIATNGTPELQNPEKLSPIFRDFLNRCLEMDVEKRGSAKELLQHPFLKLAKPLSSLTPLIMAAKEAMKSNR

Results are given in words; binding and its absence hold for the method and conditions named. Binding seen in cells or lysates may run through a third protein. Some results given as binding are weak or reduced against the parent protein; the word gives no strength.

This experiment deals with GFP-STX17 (human) (UniProt P56962). Nature of the experiment: co-IP; lysate of MDA-MB-231 cells expressing GFP or GFP-STX17 incubated with GFP-coated beads at 4 °C for 2 h; lysis buffer with NaCl, glycerine, Tris-HCl pH 7.4, 0.5% Triton X-100; washed 5 times with lysis buffer containing 1% NP40; western blotting. On the technique in general: In western blotting, separated proteins are transferred to a membrane and probed.

Take PAK1 (from UniProt Q13153 1-545): the binding result was “no binding”. For “P21-activated kinase 2 (PAK2) (from UniProt Q13177 1-524)”, the binding result is “binds”.
